Like-named read-outs stand apart in the source and are kept apart here. No constants are given. Whether binding was seen depends on the method and setting. Binding seen in cells or lysates may run through a third protein. Here binding means that the protein was enriched with, or labelled near, the bait; the list need not be complete. One block for each molecule: values may come before it.
How the values were obtained:
Assay in all cases: affinity purification with mass spectrometry; full-length CFTR immunoprecipitated with anti-CFTR 596 cross-linked to rProtein G agarose from whole-cell Triton lysates of CFBE41o− cells stably expressing the variant; cells incubated with the cleavable cross-linker DSP prior to lysis; overnight at 4 °C; parental CFBE41o− cells as background; LC-MS/MS, iBAQ
F508del-CFTR [1] = target: F508del-CFTR (UniProt P13569)
F508del-4RK-CFTR [2] = target: F508del-4RK-CFTR (UniProt P13569)
F508del-CFTR [3] = target: F508del-CFTR (UniProt P13569); remark: listed apart in the source
F508del-4RK-CFTR [4] = target: F508del-4RK-CFTR (UniProt P13569); remark: listed apart in the source

Protein sequences, listed by entry. Tags and fused reporters are not part of them. Lines headed by an entry give the natural chain unless they say otherwise; changes in a name come on top. Chains listed by the source or under a name are the forms on record and can include a tag or linker. Residues count along the entry.
F508del-CFTR (P13569, form named): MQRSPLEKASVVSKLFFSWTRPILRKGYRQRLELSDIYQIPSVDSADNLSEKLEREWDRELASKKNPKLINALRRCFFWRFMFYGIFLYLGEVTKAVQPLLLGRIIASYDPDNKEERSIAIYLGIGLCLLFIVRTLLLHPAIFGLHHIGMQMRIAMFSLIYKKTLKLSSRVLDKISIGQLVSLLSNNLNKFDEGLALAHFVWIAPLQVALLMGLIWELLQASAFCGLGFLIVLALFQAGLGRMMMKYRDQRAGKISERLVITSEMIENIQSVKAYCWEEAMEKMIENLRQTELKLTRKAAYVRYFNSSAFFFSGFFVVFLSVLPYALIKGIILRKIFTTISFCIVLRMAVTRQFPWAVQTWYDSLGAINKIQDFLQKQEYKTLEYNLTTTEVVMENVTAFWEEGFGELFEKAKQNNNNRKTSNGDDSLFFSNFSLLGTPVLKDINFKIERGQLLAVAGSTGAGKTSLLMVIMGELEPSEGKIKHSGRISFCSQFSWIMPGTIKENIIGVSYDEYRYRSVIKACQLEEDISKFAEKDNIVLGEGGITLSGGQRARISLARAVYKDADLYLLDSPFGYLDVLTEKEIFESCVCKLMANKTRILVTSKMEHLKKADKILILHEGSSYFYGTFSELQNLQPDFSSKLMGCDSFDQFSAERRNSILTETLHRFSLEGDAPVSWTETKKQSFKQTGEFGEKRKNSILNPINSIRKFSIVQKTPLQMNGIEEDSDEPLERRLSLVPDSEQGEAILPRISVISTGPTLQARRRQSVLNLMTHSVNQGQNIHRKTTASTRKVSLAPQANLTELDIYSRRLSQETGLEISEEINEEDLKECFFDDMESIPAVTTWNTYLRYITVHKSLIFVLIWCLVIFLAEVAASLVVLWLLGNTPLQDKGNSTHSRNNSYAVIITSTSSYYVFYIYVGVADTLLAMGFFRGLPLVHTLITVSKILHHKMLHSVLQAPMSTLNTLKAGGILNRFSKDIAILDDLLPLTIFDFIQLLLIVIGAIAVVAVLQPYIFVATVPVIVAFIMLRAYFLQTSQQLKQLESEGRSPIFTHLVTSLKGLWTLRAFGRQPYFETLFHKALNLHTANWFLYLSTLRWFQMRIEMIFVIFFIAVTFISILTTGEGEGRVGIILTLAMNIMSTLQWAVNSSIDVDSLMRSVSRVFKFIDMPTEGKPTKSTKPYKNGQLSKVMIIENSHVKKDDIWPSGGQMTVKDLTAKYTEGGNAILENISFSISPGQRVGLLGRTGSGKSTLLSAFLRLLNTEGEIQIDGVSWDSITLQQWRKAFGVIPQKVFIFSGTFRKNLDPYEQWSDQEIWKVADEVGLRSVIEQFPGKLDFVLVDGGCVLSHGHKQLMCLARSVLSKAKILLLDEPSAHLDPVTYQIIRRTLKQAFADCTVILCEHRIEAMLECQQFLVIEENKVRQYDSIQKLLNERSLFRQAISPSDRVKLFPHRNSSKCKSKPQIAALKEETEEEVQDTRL
F508del-4RK-CFTR (P13569, form named): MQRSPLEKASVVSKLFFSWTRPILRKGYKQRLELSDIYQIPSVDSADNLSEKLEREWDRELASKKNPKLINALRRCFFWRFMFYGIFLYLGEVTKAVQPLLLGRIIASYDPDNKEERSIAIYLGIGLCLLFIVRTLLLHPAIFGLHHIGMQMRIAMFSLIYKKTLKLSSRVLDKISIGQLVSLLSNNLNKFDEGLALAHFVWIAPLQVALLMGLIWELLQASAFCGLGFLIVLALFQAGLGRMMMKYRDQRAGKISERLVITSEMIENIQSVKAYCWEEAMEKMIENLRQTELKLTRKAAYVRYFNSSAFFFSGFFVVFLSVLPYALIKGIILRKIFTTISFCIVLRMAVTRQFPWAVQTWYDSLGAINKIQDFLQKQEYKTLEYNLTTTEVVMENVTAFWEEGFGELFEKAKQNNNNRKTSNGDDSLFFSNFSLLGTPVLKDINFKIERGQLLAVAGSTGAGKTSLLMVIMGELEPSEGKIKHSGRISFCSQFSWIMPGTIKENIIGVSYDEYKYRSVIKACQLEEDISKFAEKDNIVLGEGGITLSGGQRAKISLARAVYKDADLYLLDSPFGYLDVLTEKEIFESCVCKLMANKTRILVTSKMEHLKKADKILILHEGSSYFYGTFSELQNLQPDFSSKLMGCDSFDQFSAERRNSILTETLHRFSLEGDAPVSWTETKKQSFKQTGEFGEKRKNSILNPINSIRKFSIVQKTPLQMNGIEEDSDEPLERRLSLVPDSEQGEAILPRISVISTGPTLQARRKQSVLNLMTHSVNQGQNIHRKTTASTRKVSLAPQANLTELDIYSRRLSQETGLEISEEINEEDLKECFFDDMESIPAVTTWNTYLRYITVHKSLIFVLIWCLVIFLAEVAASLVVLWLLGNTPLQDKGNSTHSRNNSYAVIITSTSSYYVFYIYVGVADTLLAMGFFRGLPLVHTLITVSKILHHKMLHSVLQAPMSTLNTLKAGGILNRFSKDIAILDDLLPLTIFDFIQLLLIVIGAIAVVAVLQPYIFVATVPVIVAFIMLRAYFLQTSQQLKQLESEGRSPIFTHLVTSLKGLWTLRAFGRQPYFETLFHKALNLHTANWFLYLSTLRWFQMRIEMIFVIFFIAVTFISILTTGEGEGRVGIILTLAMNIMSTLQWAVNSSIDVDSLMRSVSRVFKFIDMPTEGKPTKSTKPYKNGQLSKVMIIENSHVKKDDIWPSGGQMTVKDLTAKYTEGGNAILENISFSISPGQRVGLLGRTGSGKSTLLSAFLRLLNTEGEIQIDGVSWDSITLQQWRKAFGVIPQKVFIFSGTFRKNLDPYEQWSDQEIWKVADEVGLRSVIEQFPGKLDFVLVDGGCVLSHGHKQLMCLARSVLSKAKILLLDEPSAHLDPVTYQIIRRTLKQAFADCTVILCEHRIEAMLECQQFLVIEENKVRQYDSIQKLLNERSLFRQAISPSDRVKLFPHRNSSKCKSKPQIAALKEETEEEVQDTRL
UniProt P04792: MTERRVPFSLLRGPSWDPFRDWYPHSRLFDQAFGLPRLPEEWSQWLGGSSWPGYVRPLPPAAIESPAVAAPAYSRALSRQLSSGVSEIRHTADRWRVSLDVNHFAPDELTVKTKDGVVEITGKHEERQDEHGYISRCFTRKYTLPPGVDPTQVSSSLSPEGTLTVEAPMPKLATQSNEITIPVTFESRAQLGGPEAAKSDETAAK
UniProt O14818: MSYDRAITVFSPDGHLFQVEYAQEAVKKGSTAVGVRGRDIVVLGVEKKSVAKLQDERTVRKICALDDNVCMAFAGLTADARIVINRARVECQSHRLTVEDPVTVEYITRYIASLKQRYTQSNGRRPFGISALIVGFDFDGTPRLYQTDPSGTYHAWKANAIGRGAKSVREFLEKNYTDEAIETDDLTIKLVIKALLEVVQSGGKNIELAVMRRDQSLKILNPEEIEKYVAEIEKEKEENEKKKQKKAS
UniProt P27824, residues 21-592: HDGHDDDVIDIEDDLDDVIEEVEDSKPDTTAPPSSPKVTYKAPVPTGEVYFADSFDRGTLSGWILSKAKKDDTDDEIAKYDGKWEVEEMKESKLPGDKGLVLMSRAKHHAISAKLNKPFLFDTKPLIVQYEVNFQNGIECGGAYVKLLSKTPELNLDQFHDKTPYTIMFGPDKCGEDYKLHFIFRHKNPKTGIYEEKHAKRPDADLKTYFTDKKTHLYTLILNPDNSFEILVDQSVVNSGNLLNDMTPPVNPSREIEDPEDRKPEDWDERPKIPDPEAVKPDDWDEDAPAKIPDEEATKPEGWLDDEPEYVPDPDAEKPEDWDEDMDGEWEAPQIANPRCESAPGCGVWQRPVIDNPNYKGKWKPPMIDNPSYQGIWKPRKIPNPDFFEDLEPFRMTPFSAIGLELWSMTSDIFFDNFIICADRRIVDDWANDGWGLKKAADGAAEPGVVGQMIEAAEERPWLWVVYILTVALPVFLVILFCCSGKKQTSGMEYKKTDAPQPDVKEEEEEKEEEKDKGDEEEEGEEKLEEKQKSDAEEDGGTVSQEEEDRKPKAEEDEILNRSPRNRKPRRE
UniProt P11142: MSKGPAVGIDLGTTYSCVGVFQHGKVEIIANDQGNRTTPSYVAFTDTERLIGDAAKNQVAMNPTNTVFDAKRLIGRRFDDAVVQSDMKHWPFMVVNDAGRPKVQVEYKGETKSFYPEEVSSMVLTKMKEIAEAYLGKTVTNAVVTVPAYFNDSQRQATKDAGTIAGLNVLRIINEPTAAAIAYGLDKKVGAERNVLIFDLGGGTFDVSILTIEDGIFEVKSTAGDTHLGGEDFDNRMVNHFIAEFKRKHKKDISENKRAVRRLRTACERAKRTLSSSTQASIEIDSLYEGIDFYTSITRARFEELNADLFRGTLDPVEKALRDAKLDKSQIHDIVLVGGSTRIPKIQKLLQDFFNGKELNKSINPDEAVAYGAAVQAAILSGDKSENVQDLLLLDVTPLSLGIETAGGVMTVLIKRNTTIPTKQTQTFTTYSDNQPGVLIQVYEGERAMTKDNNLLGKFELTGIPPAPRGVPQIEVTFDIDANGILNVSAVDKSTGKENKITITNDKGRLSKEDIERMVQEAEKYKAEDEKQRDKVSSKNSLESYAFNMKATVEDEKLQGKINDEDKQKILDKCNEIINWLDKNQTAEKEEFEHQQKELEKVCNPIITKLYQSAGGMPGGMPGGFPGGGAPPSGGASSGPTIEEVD
UniProt O60884: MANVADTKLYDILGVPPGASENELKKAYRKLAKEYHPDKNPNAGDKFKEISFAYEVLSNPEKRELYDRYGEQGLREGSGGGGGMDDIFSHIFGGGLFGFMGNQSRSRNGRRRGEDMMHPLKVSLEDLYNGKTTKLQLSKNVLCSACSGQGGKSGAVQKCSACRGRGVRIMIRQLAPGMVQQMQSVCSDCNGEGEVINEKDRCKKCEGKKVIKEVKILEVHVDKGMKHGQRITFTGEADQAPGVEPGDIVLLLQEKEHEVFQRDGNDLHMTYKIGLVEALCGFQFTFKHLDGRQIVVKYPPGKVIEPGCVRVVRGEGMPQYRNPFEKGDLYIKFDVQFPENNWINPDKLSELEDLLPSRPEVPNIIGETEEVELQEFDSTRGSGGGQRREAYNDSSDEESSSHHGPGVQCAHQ

Molecule: HspB1 (from UniProt P04792 1-205)
binding (F508del-4RK-CFTR [2]): binds
binding (F508del-CFTR [1]): binds

Molecule: PSMA7 (from UniProt O14818 1-248)
binding (F508del-4RK-CFTR [2]): binds

Molecule: calnexin (from UniProt P27824 21-592)
binding (F508del-CFTR [1]): binds

Molecule: heat shock cognate 71KDa protein (HSPA8/Hsp73) (from UniProt P11142 1-646)
binding (F508del-CFTR [1]): binds

More lines, now with the values ahead:

binding (F508del-CFTR [1]): binds
Molecule: DNAJA2 (from UniProt O60884 1-412)

binding (F508del-CFTR [3]): binds
B1: DNAJC8 (protein, UniProt O75937 1-253)
chain: MAASGESGTSGGGGSTEEAFMTFYSEVKQIEKRDSVLTSKNQIERLTRPGSSYFNLNPFEVLQIDPEVTDEEIKKRFRQLSILVHPDKNQDDADRAQKAFEAVDKAYKLLLDQEQKKRALDVIQAGKEYVEHTVKERKKQLKKEGKPTIVEEDDPELFKQAVYKQTMKLFAELEIKRKEREAKEMHERKRQREEEIEAQEKAKREREWQKNFEESRDGRVDSWRNFQANTKGKKEKKNRTFLRPPKVKMEQRE

binding (F508del-4RK-CFTR [4]): binds
binding (F508del-CFTR [3]): binds
B2: ERP44 (endoplasmic reticulum resident protein 44) (protein, UniProt Q9BS26 30-406)
chain: EITSLDTENIDEILNNADVALVNFYADWCRFSQMLHPIFEEASDVIKEEFPNENQVVFARVDCDQHSDIAQRYRISKYPTLKLFRNGMMMKREYRGQRSVKALADYIRQQKSDPIQEIRDLAEITTLDRSKRNIIGYFEQKDSDNYRVFERVANILHDDCAFLSAFGDVSKPERYSGDNIIYKPPGHSAPDMVYLGAMTNFDVTYNWIQDKCVPLVREITFENGEELTEEGLPFLILFHMKEDTESLEIFQNEVARQLISEKGTINFLHADCDKFRHPLLHIQKTPADCPVIAIDSFRHMYVFGDFKDVLIPGKLKQFVFDLHSGKLHREFHHGPDPTDTAPGEQAQDVASSPPESSFQKLAPSEYRYTLLRDRDEL

binding (F508del-4RK-CFTR [4]): binds
B3: RFN14 (protein, UniProt Q9UBS8 1-474)
chain: MSSEDREAQEDELLALASIYDGDEFRKAESVQGGETRIYLDLPQNFKIFVSGNSNECLQNSGFEYTICFLPPLVLNFELPPDYPSSSPPSFTLSGKWLSPTQLSALCKHLDNLWEEHRGSVVLFAWMQFLKEETLAYLNIVSPFELKIGSQKKVQRRTAQASPNTELDFGGAAGSDVDQEEIVDERAVQDVESLSNLIQEILDFDQAQQIKCFNSKLFLCSICFCEKLGSECMYFLECRHVYCKACLKDYFEIQIRDGQVQCLNCPEPKCPSVATPGQVKELVEAELFARYDRLLLQSSLDLMADVVYCPRPCCQLPVMQEPGCTMGICSSCNFAFCTLCRLTYHGVSPCKVTAEKLMDLRNEYLQADEANKRLLDQRYGKRVIQKALEEMESKEWLEKNSKSCPCCGTPIEKLDGCNKMTCTGCMQYFCWICMGSLSRANPYKHFNDPGSPCFNRLFYAVDVDDDIWEDEVED

From publication PMC6523853
